From patent publication US9357777B2, “Method for effective management of helicoverpa armigera” (priority 2012, dated 2016)
“Also recorded” adds a separate entry of the source. Not every detail of the peptide structures is certain; ends, links or a residue may be inferred. Bridges are numbered along the chain shown (N, C = ends). Where no end group is shown, it is not given here.

Legend:
trypsin [1] = assay: Modification of serine residues with PMSF, residual inhibitory activity; format: biochemical; conditions: PMSF 10 mM for 2 hr at 30° C.
trypsin [2] = assay: Effect of temperature on inhibitory activity (BApNA assay); format: biochemical; conditions: heated 60 to 100° C.; FIG. 3B
trypsin [3] = target: T1, trypsin (Bos taurus, UniProt P00760); assay: Effect of reducing agents, native-PAGE activity gel (GXCT); format: biochemical; conditions: β-mercaptoethanol and heating; 15% native-PAGE; FIG. 3A
T1 construct: purchased Sigma-Aldrich
T1 sequence (P00760 24-246): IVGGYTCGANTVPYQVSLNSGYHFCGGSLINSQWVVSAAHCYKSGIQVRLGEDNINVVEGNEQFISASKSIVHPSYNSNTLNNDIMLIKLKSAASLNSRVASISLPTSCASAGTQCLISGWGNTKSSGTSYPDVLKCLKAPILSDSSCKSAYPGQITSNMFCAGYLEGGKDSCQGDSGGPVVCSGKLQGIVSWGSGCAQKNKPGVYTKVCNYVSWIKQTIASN

H. armigera larvae = assay: Feeding assay on artificial diet containing PIs; format: in vivo, Helicoverpa armigera; conditions: artificial diet with equal TI units of PI; FIG. 7A, 7B
[4] = tested on: H. armigera gut proteases (HGP); assay: Proteolytic stability of IRDs towards HGP (native-PAGE, GXCT); format: physicochemical, Helicoverpa armigera; conditions: 24° C., 5 min and 1 h; FIG. 3C

QPICTNSSAGLKGCNYYNADGTFICEGESDPNHPKACPKNCDPNIAYSLC (disulfide 4-41, 14-50; cysteines drawn unpaired) [IRD-9]
inhibition potential of PMSF modified inhibitor, activity visualization assay (GXCT) (trypsin [1]): reduced inhibition potential | inhibitory activity against trypsin after heating (thermal stability) (trypsin [2]): gradually lost activity starting from 70 °C | inhibitory activity in native vs reduced state (trypsin [3]): Only normal samples showed inhibitory activity | larval weight at day 10 (H. armigera larvae): weighed significantly less than control diet fed larvae | proteolytic resistance when incubated with HGP [4]: proteolytic resistance for 60 min; also recorded: higher intensities as compared with IRD-7 and -12
